From paper doi:10.1101/2023.05.22.541649 come the findings set out here.

Chains of the proteins cited; added tags and fusions are not shown. Lines headed by an entry give the natural chain unless they say otherwise; changes in a name come on top. A line that says so, or that is headed by a name, gives the form on record, which may keep a tag or linker.
GFP-CENP-T^1–242^/3D (Q96BT3, form named): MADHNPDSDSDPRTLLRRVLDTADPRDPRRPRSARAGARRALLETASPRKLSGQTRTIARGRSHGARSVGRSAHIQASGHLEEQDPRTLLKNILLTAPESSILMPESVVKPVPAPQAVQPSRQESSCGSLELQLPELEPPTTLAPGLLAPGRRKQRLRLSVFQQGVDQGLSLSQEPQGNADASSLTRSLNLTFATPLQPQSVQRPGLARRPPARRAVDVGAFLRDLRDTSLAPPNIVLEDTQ

This assay concerns the target GFP-CENP-T^1–242^/3D (human) (UniProt Q96BT3). The experiment in a line: fluorescence intensity of single particles.

No constants are given. Whether binding was seen depends on the method and setting.

As to “GFP-CENP-T^1–242^/3D (from UniProt Q96BT3 1-242) (domain or fragment)”, the binding entry is “no binding”.
